These results are taken from PubChem BioAssay AID1671190 (National Center for Advancing Translational Sciences (NCATS), 2021).

Chains of the proteins cited; added tags and fusions are not shown. Lines headed by an entry give the natural chain unless they say otherwise; changes in a name come on top.
UniProt P18054: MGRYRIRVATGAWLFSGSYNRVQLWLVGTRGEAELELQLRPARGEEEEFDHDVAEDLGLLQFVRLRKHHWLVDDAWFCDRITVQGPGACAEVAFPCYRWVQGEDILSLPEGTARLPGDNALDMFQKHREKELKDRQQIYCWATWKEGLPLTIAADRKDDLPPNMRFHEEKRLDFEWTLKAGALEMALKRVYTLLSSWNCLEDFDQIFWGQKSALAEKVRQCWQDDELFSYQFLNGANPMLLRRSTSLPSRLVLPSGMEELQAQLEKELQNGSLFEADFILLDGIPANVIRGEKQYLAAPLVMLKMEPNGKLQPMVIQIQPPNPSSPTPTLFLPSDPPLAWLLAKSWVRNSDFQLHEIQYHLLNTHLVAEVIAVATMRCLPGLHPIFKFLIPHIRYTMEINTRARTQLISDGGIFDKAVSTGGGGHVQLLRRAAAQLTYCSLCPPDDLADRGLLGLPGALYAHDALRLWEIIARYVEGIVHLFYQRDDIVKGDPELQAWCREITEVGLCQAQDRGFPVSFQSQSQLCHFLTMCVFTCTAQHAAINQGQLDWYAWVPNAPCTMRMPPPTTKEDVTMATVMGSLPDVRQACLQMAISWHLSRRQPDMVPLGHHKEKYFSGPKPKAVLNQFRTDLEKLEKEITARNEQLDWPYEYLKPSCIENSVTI

The whole screen tested about 580,000 compounds, of which about 6,100 (1.1%) were called active. Inconclusive results (about 15%) are left out. Calls follow the shape of the dose curve; as a rule, active = well fitted inhibition curve with a large enough effect; inconclusive = small, poorly fitted or top-dose-only effect, or another doubt; inactive = no such curve, though single readings can be large or run the other way. This is a selection; strong and weak results do not stand in their true shares. The source gives no active or inactive call for entries shown without one.
% is scaled to controls: 0 for no effect and ±100 for the full control effect; potency is read from the fitted curve at half-maximal effect.

For the experiment, the target named is Polyunsaturated fatty acid lipoxygenase ALOX12 (Homo sapiens) (UniProt P18054). Kind of experiment: Primary qHTS assay for inhibitors of human arachidonate 12S-lipoxygenase (ALOX12): Round 2. The settings on record: purified 12hLO, xylenol orange hydroperoxide absorbance; activity change, negative = inhibition: at 0.00344 µM (top of the series) unless noted. An outline of the steps: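 Purified human 12hLO (150 nM final) in 25 mM Hepes, 0.01% Triton X-100, pH 7.0 was preincubated 15 min at room temperature with compound. Then 40 uM arachidonic acid was added, 30 min. Hydroperoxide was read by Fe-XO absorbance ratio 573/405 nm.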
With `O=P1(N(CCCl)CCCl)NCCCO1` (stereo not drawn), the activity change, negative = inhibition is -14.4%.

`CC(C)(C)CC(C)(C)c1ccc(O)cc1`: the activity change, negative = inhibition was 4.72%. Take `NC(=O)CS(=O)C(c1ccccc1)c1ccccc1` (stereo not drawn): the activity change, negative = inhibition was found to be 49.5%. On to `C#C[C@H]1CN2CC[C@H]1C[C@@H]2COC(=O)NCCC`, for which the Potency is active: 8.91 µM. For `O=C(NC(O)C(Cl)(Cl)Cl)NC(O)C(Cl)(Cl)Cl` (stereo not drawn), the activity change, negative = inhibition is -2.83%. Regarding `CC(=O)NC1CCSC1=O` (stereo not drawn), the activity change, negative = inhibition is -12.8%. Regarding `CCN(CC)CCN1C(=O)CN=C(c2ccccc2F)c2cc(Cl)ccc21`, the activity change, negative = inhibition is 20.1%. Turning to `C[C@]12C/C(=C/O)C(=O)C[C@@H]1CC[C@@H]1[C@@H]2CC[C@@]2(C)[C@H]1CC[C@]2(C)O`, the activity change, negative = inhibition was determined as 11%.

With `CCC(=O)O[C@@H]1C=C2CCC3C(CCC4(C)C3CC[C@@H]4OC(=O)CC)C2CC1` (stereo partly drawn), the activity change, negative = inhibition was -22.5%. On to `CCOP(=S)(OCC)Oc1ccc2c(C)c(Cl)c(=O)oc2c1`, for which the activity change, negative = inhibition was determined as 1.66%.

Take `CCOC(=O)C(c1c(O)c2ccccc2oc1=O)c1c(O)c2ccccc2oc1=O`: the activity change, negative = inhibition came out at 25.7%. Same read-out and setting: in the case of `NN=C(N)N` it was 7.07%.

For the compound `Fc1cc(Br)ccc1CBr`, the activity change, negative = inhibition was -17.1%. With `Clc1ccc(C(c2ccc(Cl)cc2)C(Cl)(Cl)Cl)cc1`, the activity change, negative = inhibition was -9.09%.

`COc1cc(N)c(Cl)cc1C(=O)NC1CN2CCC1CC2` (stereo not drawn): the activity change, negative = inhibition came out at 22%. Consider `C[C@]12CCC(=O)C=C1CC[C@@H]1[C@@H]2CC[C@]2(C)C(=O)CC[C@@H]12`, for which the activity change, negative = inhibition was found to be 4.24%. Take `NC(=O)OCCCc1ccccc1`: the activity change, negative = inhibition is 12%. Still for that read-out and setting: in the case of `O=C(CBr)Nc1ccc(Cl)cc1C(=O)c1ccccc1F` it was -43.2%. With `CCN(Cc1ccc(Cl)nc1)/C(=C/[N+](=O)[O-])NC`, the activity change, negative = inhibition was -1.49%.

Turning to `CN1CC[C@]23c4c5ccc(O)c4O[C@H]2[C@@H](O)CC[C@H]3[C@H]1C5`, the activity change, negative = inhibition amounted to 20.6% [at 0.00599 µM].

In the case of `CCC(=O)O[C@H]1CC[C@H]2[C@@H]3CCC4=CC(=O)CC[C@]4(C)[C@H]3CC[C@]12C`, the activity change, negative = inhibition is 27.2%. Take `CO[C@]12CC[C@@]3(C[C@@H]1[C@](C)(O)C(C)(C)C)[C@@H]1Cc4ccc(O)c5c4[C@@]3(CCN1CC1CC1)[C@H]2O5`: the activity change, negative = inhibition is -14.8% [at 0.00599 µM]. With `C[C@@H]1CN(C2CCC(C#N)(c3ccc(F)cc3)CC2)CC[C@]1(C(=O)O)c1ccccc1` (stereo partly drawn), the activity change, negative = inhibition turned out to be 8.36%. `C[C@]12CC[C@H]3[C@@H](CCC4=CC(=O)CC[C@@H]43)[C@@H]1CC[C@@H]2OC(=O)CCC1CCCCC1`: the activity change, negative = inhibition is 1.41%. With `CCc1cc2c(s1)-n1c(C)nnc1CN=C2c1ccccc1Cl`, the activity change, negative = inhibition is -6.46%.

In the case of `CC1OC(C)OC(C)O1` (stereo not drawn), the activity change, negative = inhibition was found to be 13.5%. Regarding `COP(=S)(OC)Oc1cc(Cl)c(Cl)cc1Cl`, the activity change, negative = inhibition worked out at 48.4%. As for `CCCCCCCCC(=O)NCc1ccc(O)c(OC)c1`, the activity change, negative = inhibition was -13%. Consider `O=C(O)c1ccc(=O)[nH]c1`, for which the activity change, negative = inhibition is -23%. With `C=CCC1([C@H](C)CCC)C(=O)NC(=O)NC1=O`, the activity change, negative = inhibition worked out at 23.8% [at 0.00599 µM]. Regarding `CC[N+]1(CC)CCC(OC(=O)C(O)(c2ccccc2)c2ccccc2)C1` (stereo not drawn), the activity change, negative = inhibition turned out to be 4.12%. `O=C(Nc1ccc(Br)cc1)c1cc(Br)cc(Br)c1O`: the activity change, negative = inhibition was -4.41%. Regarding `O=C(O)C1=NOC2CN(Cc3cncs3)CC12` (stereo not drawn), the Potency is active: 12.6 µM.

For the compound `CCCCCCCCCCCC[N+](C)(C)CCOc1ccccc1`, the activity change, negative = inhibition stood at 6.32%. In the case of `FC(F)(F)c1cccc(C2=CCN(CCc3ccc4ccccc4c3)CC2)c1`, the activity change, negative = inhibition was 31%. `CC(=O)[O][Hg][c]1ccccc1`: the activity change, negative = inhibition was -13%. With `Cc1cc2c(C(C)C)c(O)c(O)c(C=O)c2c(O)c1-c1c(C)cc2c(C(C)C)c(O)c(O)c(C=O)c2c1O`, the activity change, negative = inhibition is -12%. As for `CC(N)C(=O)OC(C)(C)Cc1ccc(Cl)cc1` (stereo not drawn), the activity change, negative = inhibition was 7.21%.

Take `COc1ccc(C(=O)c2c(C)n(CCN3CCOCC3)c3ccccc23)cc1`: the activity change, negative = inhibition is -0.299%.

Take `CC(=O)OCC[N+](C)(C)C`: the activity change, negative = inhibition was found to be 9.95%. As for `C[C@]12CC[C@H]3[C@@H](CCC4=CC(=O)CC[C@@]43C)[C@@H]1CC[C@@H]2C(=O)O`, the activity change, negative = inhibition is 20.1%. For the compound `CCN(CC)CCOC(=O)C(O)(c1ccccc1)c1ccccc1`, the activity change, negative = inhibition is 15.6%. As for `CC(C)(C)OC(=O)c1ncn2c1[C@@H]1CCCN1C(=O)c1c(Br)cccc1-2`, the activity change, negative = inhibition is -13.8%.

Regarding `OC(O)C(Cl)(Cl)Cl`, the activity change, negative = inhibition was -0.469%.

Take `COCC(=O)N(c1c(C)cccc1C)C(C)C(=O)OC` (stereo not drawn): the activity change, negative = inhibition was -48%.

With `CNCC(O)c1ccc(O)cc1` (stereo not drawn), the activity change, negative = inhibition is 11.4%. For the compound `CC(C)NCC(O)c1ccc(N)c(C#N)c1` (stereo not drawn), the activity change, negative = inhibition was -6.11%. Turning to `CCC(OC(C)=O)C(CC(C)NC)(c1ccccc1)c1ccccc1` (stereo not drawn), the activity change, negative = inhibition was -22.7% [at 0.00599 µM]. Regarding `O=c1[nH]c2cc(Cl)ccc2n1C1CCNCC1`, the activity change, negative = inhibition worked out at 1.45%. For the compound `C[C@]12CCC(=O)C=C1CC[C@@H]1[C@@H]2CC[C@@]2(C)[C@H]1CC[C@]2(C)O`, the activity change, negative = inhibition was 16.2%.

In the case of `CC[C@]1(O)CC[C@H]2[C@@H]3CCC4=CCCC[C@@H]4[C@H]3CC[C@@]21C`, the activity change, negative = inhibition is -6.64%. Still for that read-out and setting: in the case of `O=c1c(C2CC(c3ccc(-c4ccc(Br)cc4)cc3)Cc3ccccc32)c(O)sc2ccccc12` (stereo not drawn) it was 27%; in that of `COC(=O)[C@@H](N)CCCN/C(N)=N/[N+](=O)[O-]`, 11.4%.
